Test results reported in publication doi:10.1101/2020.05.04.070177.
Results are given in words; binding and its absence hold for the method and conditions named. Some entries that bind do so weakly or less than the wild type.

The chains behind the UniProt entries cited, without tags or fusion partners. Residues count along the entry.
UniProt Q14258, residues 189-630: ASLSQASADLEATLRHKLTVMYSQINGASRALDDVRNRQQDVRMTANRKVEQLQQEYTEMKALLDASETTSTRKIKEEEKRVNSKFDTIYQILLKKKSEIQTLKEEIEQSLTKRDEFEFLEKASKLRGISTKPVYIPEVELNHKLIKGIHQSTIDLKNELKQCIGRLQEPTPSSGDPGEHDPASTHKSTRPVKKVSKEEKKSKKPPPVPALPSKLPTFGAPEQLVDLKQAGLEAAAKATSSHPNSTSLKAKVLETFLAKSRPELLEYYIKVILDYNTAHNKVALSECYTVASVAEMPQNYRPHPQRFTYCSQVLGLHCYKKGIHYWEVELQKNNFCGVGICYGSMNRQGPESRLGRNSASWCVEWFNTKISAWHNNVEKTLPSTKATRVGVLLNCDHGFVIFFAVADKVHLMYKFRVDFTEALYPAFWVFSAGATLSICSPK

Biological target: TRIM25 CC-PRY/SPRY (aa 189-630) (human) (UniProt Q14258)
Assay: NMR 1H,15N-HSQC spectrum

- binding: binds weakly
Substance: TRIM25 CC-PRY/SPRY (aa 189-630) (from UniProt Q14258 189-630) (domain or fragment)
